The text below walks through data of the supplement of paper PMC12819154, “High-throughput peptide-centric local stability assay extends protein–ligand identification to membrane proteins, tissues and bacteria” (Nature Structural & Molecular Biology, 2025).

The chains behind the UniProt entries cited, without tags or fusion partners. Where a name states a change or a piece, a line headed by the entry shows the natural chain unless it says otherwise.
UniProt Q9NW38: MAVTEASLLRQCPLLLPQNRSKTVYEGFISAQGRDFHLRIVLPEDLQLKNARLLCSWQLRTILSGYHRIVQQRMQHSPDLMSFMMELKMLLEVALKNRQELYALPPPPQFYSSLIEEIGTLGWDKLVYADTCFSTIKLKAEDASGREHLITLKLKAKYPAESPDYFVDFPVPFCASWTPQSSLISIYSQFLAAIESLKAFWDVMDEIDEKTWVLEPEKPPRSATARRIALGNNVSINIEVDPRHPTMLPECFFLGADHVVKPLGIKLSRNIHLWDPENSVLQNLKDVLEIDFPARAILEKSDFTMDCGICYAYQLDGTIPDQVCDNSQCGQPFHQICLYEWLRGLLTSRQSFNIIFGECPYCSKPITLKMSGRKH
UniProt Q9NUS5: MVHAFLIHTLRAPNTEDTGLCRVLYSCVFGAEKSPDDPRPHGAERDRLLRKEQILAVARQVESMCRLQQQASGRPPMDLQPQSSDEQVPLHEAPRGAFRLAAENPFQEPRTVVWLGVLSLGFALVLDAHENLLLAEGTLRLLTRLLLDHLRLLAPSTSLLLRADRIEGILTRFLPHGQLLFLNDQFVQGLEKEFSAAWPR
UniProt Q9NV06: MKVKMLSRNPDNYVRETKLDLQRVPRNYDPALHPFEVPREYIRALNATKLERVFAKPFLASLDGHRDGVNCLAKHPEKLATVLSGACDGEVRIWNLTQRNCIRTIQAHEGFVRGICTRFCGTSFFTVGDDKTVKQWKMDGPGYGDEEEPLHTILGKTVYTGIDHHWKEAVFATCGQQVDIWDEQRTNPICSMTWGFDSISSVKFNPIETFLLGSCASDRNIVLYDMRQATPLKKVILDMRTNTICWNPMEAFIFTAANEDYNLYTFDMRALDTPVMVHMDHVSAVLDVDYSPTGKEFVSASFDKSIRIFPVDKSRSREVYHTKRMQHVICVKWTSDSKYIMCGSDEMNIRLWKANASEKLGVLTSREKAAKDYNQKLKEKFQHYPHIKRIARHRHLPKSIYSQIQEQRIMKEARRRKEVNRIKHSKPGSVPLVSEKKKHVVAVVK
UniProt Q9NRG4: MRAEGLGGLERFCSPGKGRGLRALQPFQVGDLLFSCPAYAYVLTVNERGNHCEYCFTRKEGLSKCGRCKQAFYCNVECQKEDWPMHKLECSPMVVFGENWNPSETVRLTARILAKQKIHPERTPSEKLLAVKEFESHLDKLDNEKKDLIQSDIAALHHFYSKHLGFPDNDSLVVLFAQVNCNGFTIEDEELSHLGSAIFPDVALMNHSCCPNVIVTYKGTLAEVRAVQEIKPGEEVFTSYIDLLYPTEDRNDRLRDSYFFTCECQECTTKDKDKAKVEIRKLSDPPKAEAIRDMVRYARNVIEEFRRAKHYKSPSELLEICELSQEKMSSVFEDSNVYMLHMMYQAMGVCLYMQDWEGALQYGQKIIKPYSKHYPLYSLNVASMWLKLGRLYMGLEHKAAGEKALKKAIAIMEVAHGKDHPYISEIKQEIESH
UniProt Q9NTJ4: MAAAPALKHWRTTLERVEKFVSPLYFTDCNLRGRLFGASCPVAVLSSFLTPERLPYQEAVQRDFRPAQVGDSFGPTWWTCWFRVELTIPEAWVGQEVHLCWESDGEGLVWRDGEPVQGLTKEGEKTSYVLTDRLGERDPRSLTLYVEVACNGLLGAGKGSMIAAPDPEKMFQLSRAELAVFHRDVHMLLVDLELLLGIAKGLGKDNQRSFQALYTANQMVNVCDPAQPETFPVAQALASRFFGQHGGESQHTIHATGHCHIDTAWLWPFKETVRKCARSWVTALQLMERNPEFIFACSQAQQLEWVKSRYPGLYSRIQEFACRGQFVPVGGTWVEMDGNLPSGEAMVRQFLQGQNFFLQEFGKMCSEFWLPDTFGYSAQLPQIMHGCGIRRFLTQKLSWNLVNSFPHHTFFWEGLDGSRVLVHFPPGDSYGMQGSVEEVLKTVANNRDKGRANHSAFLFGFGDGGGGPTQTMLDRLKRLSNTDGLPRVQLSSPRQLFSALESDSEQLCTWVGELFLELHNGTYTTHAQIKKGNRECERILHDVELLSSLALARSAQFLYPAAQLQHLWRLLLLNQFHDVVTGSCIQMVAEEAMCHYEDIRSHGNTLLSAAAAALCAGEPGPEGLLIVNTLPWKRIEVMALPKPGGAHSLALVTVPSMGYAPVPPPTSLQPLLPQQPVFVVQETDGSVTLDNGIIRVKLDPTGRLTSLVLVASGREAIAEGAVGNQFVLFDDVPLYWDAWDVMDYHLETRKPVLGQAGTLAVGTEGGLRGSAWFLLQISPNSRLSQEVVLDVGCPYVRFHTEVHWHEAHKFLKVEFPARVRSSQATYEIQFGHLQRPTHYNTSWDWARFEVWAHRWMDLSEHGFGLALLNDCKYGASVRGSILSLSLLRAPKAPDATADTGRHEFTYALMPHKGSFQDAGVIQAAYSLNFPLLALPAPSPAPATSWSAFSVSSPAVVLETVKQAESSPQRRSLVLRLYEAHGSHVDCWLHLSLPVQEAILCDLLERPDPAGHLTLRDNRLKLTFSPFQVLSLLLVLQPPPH
UniProt Q9NW75: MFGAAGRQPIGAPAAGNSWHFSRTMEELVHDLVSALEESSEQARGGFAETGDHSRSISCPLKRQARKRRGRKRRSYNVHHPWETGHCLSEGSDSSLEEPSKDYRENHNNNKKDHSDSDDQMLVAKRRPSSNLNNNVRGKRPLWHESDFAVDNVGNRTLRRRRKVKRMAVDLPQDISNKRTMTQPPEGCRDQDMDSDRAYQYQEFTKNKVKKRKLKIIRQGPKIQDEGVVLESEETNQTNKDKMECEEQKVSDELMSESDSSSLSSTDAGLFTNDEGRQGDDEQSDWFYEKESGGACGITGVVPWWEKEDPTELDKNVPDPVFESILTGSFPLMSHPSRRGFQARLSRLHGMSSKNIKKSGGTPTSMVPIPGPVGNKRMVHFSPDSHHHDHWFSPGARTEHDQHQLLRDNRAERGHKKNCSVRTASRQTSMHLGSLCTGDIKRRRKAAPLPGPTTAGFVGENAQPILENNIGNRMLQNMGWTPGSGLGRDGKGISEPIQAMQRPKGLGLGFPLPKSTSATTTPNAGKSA
UniProt Q9NSA3: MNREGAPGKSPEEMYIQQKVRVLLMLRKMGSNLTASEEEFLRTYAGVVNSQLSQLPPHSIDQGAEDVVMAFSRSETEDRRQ
UniProt Q9NQU5: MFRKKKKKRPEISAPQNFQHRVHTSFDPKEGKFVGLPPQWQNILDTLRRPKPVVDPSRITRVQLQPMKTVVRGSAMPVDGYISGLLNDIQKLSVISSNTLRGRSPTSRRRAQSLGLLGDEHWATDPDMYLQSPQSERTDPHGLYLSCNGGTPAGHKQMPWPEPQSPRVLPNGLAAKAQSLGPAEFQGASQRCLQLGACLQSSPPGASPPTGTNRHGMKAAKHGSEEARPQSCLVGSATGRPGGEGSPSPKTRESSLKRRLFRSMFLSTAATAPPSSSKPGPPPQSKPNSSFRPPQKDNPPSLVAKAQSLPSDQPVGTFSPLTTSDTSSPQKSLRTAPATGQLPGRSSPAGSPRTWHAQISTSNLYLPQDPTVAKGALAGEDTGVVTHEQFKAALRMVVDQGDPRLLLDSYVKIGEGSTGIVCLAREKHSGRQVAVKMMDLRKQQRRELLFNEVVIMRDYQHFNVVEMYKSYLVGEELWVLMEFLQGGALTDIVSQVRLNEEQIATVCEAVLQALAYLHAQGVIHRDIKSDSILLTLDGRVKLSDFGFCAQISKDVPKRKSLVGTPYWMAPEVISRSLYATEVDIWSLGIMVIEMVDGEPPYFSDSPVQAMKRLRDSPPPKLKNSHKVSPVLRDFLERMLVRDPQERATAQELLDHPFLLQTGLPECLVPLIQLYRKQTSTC

The list shows a part of the results. Small differences around the control level are noise.

Compound in this experiment: Cc1nc(Nc2ncc(C(=O)Nc3c(C)cccc3Cl)s2)cc(N2CCN(CCO)CC2)n1 [dasatinib]
Briefly: log2 fold change of tryptic peptide abundance, ligand vs vehicle (limited proteolysis) (log2 ratio); higher = more trypsin-susceptible (destabilized). The following applies: ligand concentration: 5 uM; sample: K562 cleared lysate.
Take “FANCL (peptide sequence: TILSGYHR, peptide start residue: 61) (UniProt Q9NW38)”: the log2 fold change is -0.532.

Consider “UniProt Q9NUS5 (peptide sequence: APNTEDTGLCR, peptide start residue: 12)”, for which the log2 fold change is -0.234.

Take “UniProt Q9NV06 (peptide sequence: EFVSASFDK, peptide start residue: 296)”: the log2 fold change turned out to be 0.303. On to “SMYD2 (peptide sequence: LYMGLEHK, peptide start residue: 391) (UniProt Q9NRG4)”, for which the log2 fold change was 0.238. As to “MAN2C1 (peptide sequence: TSYVLTDR, peptide start residue: 126) (UniProt Q9NTJ4)”, the log2 fold change turned out to be 0.0559. Then “MRPL40 (peptide sequence: LHAEAIKRDPNLFPFEK, peptide start residue: 157) (UniProt Q9NQ50)”, with -0.28; and “GPATCH2 (peptide sequence: GGFAETGDHSR, peptide start residue: 45) (UniProt Q9NW75)”, with 0.151. Then “CTNNBIP1 (peptide sequence: SETEDRRQ, peptide start residue: 74) (UniProt Q9NSA3)”, with 0.673. As to “PAK6 (peptide sequence: RELLFNEVVIMR, peptide start residue: 360) (UniProt Q9NQU5)”, the log2 fold change is 0.0405.
